Results published in the supplement of paper PMC11438910.
Some of the results follow. The signal is at background level for most entries.

How the values were obtained:
Test in all cases: fluorescence intensity of antibody binding to polysaccharide-coupled beads; higher = stronger binding
[1] = target: pneumococcal polysaccharide Pn22A
[2] = target: pneumococcal polysaccharide Pn22F
[3] = target: pneumococcal polysaccharide Pn23A
[4] = target: pneumococcal polysaccharide Pn23B
[5] = target: pneumococcal polysaccharide Pn23F
[6] = target: pneumococcal polysaccharide Pn24A
[7] = target: pneumococcal polysaccharide Pn24B
[8] = target: pneumococcal polysaccharide Pn24F
[9] = target: pneumococcal polysaccharide Pn25A
[10] = target: pneumococcal polysaccharide Pn25F
[11] = target: pneumococcal polysaccharide Pn27
[12] = target: pneumococcal polysaccharide Pn28A
[13] = target: pneumococcal polysaccharide Pn28F
[14] = target: pneumococcal polysaccharide Pn29
[15] = target: pneumococcal polysaccharide Pn3
[16] = target: pneumococcal polysaccharide Pn31
[17] = target: pneumococcal polysaccharide Pn32A
[18] = target: pneumococcal polysaccharide Pn32F
[19] = target: pneumococcal polysaccharide Pn33A
[20] = target: pneumococcal polysaccharide Pn33B
[21] = target: pneumococcal polysaccharide Pn33C
[22] = target: pneumococcal polysaccharide Pn33D
[23] = target: pneumococcal polysaccharide Pn33F
[24] = antibody concentration 81.7561 ng/mL
[25] = antibody concentration 437.17 ng/mL
[26] = antibody concentration 2337.65 ng/mL
[27] = antibody concentration 12500 ng/mL
[28] = antibody concentration 0.1 ng/mL
[29] = antibody concentration 0.534724 ng/mL
[30] = antibody concentration 2.8593 ng/mL
[31] = antibody concentration 15.2894 ng/mL

B1: 3S41.2 (protein)
chain 1: EVQLVESGGGLVQPGGSLRLSCATSGFTFRNYWMYWFRQAPGKGLDWVSSISDSSSNTFYSDSVKGRFTISRDNAKNTLYLQMNSLRAEDTAVYYCARRPIAAATGVYWYFDLWGPGTPITVSS
chain 2: QAALTQPPSMSGSPGQSVTISCTGTSSDIGGYNRVSWYQQYPGKAPKLMIYEVSKRPSGVSDRFSGSKSGNTAALTISGLQAADEADYYCSSYAGSYTFVLFGGGTRLTVL
fluorescence intensity [1, 24]: 21.5 MFI
fluorescence intensity [1, 25]: 22 MFI
fluorescence intensity [1, 26]: 35 MFI
fluorescence intensity [1, 27]: 116 MFI
fluorescence intensity [2, 28]: 28.2 MFI
fluorescence intensity [2, 29]: 33 MFI
fluorescence intensity [2, 30]: 30.8 MFI
fluorescence intensity [2, 31]: 32 MFI
fluorescence intensity [2, 24]: 30.5 MFI
fluorescence intensity [2, 25]: 31.5 MFI
fluorescence intensity [2, 26]: 35.5 MFI
fluorescence intensity [2, 27]: 52.5 MFI
fluorescence intensity [3, 28]: 25.5 MFI
fluorescence intensity [3, 29]: 26 MFI
fluorescence intensity [3, 30]: 23.5 MFI
fluorescence intensity [3, 31]: 26 MFI
fluorescence intensity [3, 24]: 28.5 MFI
fluorescence intensity [3, 25]: 36 MFI
fluorescence intensity [3, 26]: 53.5 MFI
fluorescence intensity [3, 27]: 106 MFI
fluorescence intensity [4, 28]: 29.5 MFI
fluorescence intensity [4, 29]: 29.5 MFI
fluorescence intensity [4, 30]: 31.5 MFI
fluorescence intensity [4, 31]: 28.8 MFI
fluorescence intensity [4, 24]: 31 MFI
fluorescence intensity [4, 25]: 31.8 MFI
fluorescence intensity [4, 26]: 35.5 MFI
fluorescence intensity [4, 27]: 47 MFI
fluorescence intensity [5, 28]: 18 MFI
fluorescence intensity [5, 29]: 18.5 MFI
fluorescence intensity [5, 30]: 19 MFI
fluorescence intensity [5, 31]: 17.2 MFI
fluorescence intensity [5, 24]: 16.5 MFI
fluorescence intensity [5, 25]: 21 MFI
fluorescence intensity [5, 26]: 26.8 MFI
fluorescence intensity [5, 27]: 38.5 MFI
fluorescence intensity [6, 28]: 16 MFI
fluorescence intensity [6, 29]: 15.2 MFI
fluorescence intensity [6, 30]: 15 MFI
fluorescence intensity [6, 31]: 15 MFI
fluorescence intensity [6, 24]: 16.5 MFI
fluorescence intensity [6, 25]: 16.5 MFI
fluorescence intensity [6, 26]: 19 MFI
fluorescence intensity [6, 27]: 34.5 MFI
fluorescence intensity [7, 28]: 17.2 MFI
fluorescence intensity [7, 29]: 17 MFI
fluorescence intensity [7, 30]: 18.5 MFI
fluorescence intensity [7, 31]: 17.5 MFI
fluorescence intensity [7, 24]: 18.5 MFI
fluorescence intensity [7, 25]: 20 MFI
fluorescence intensity [7, 26]: 28.2 MFI
fluorescence intensity [7, 27]: 69 MFI
fluorescence intensity [8, 28]: 18.2 MFI
fluorescence intensity [8, 29]: 17 MFI
fluorescence intensity [8, 30]: 17 MFI
fluorescence intensity [8, 31]: 18 MFI
fluorescence intensity [8, 24]: 19 MFI
fluorescence intensity [8, 25]: 23.5 MFI
fluorescence intensity [8, 26]: 31 MFI
fluorescence intensity [8, 27]: 52 MFI
fluorescence intensity [9, 28]: 23.2 MFI
fluorescence intensity [9, 29]: 23.2 MFI
fluorescence intensity [9, 30]: 24 MFI
fluorescence intensity [9, 31]: 25 MFI
fluorescence intensity [9, 24]: 25 MFI
fluorescence intensity [9, 25]: 27 MFI
fluorescence intensity [9, 26]: 31 MFI
fluorescence intensity [9, 27]: 39.8 MFI
fluorescence intensity [10, 28]: 30.5 MFI
fluorescence intensity [10, 29]: 32.5 MFI
fluorescence intensity [10, 30]: 31 MFI
fluorescence intensity [10, 31]: 31.5 MFI
fluorescence intensity [10, 24]: 30.5 MFI
fluorescence intensity [10, 25]: 32.5 MFI
fluorescence intensity [10, 26]: 35.2 MFI
fluorescence intensity [10, 27]: 55.8 MFI
fluorescence intensity [11, 28]: 17.5 MFI
fluorescence intensity [11, 29]: 17.5 MFI
fluorescence intensity [11, 30]: 18 MFI
fluorescence intensity [11, 31]: 16 MFI
fluorescence intensity [11, 24]: 18.5 MFI
fluorescence intensity [11, 25]: 21 MFI
fluorescence intensity [11, 26]: 64.5 MFI
fluorescence intensity [11, 27]: 366 MFI
fluorescence intensity [12, 28]: 27.5 MFI
fluorescence intensity [12, 29]: 26.5 MFI
fluorescence intensity [12, 30]: 26 MFI
fluorescence intensity [12, 31]: 26.2 MFI
fluorescence intensity [12, 24]: 28 MFI
fluorescence intensity [12, 25]: 29 MFI
fluorescence intensity [12, 26]: 31.2 MFI
fluorescence intensity [12, 27]: 43 MFI
fluorescence intensity [13, 28]: 30.2 MFI
fluorescence intensity [13, 29]: 30.5 MFI
fluorescence intensity [13, 30]: 30 MFI
fluorescence intensity [13, 31]: 28.2 MFI
fluorescence intensity [13, 24]: 30.5 MFI
fluorescence intensity [13, 25]: 31.5 MFI
fluorescence intensity [13, 26]: 45.2 MFI
fluorescence intensity [13, 27]: 139 MFI
fluorescence intensity [14, 28]: 15.5 MFI
fluorescence intensity [14, 29]: 15.5 MFI
fluorescence intensity [14, 30]: 18.5 MFI
fluorescence intensity [14, 31]: 15.5 MFI
fluorescence intensity [14, 24]: 17 MFI
fluorescence intensity [14, 25]: 19 MFI
fluorescence intensity [14, 26]: 41 MFI
fluorescence intensity [14, 27]: 222 MFI
fluorescence intensity [15, 28]: 14.5 MFI
fluorescence intensity [15, 29]: 15.5 MFI
fluorescence intensity [15, 30]: 28.5 MFI
fluorescence intensity [15, 31]: 84 MFI
fluorescence intensity [15, 24]: 462 MFI
fluorescence intensity [15, 25]: 1600 MFI
fluorescence intensity [15, 26]: 5400 MFI
fluorescence intensity [15, 27]: 9630 MFI
fluorescence intensity [16, 28]: 14.5 MFI
fluorescence intensity [16, 29]: 14 MFI
fluorescence intensity [16, 30]: 14 MFI
fluorescence intensity [16, 31]: 15 MFI
fluorescence intensity [16, 24]: 15 MFI
fluorescence intensity [16, 25]: 16.5 MFI
fluorescence intensity [16, 26]: 42.5 MFI
fluorescence intensity [16, 27]: 253 MFI
fluorescence intensity [17, 28]: 17.8 MFI
fluorescence intensity [17, 29]: 17.5 MFI
fluorescence intensity [17, 30]: 18 MFI
fluorescence intensity [17, 31]: 18 MFI
fluorescence intensity [17, 24]: 18.2 MFI
fluorescence intensity [17, 25]: 19 MFI
fluorescence intensity [17, 26]: 29.5 MFI
fluorescence intensity [17, 27]: 66 MFI
fluorescence intensity [18, 28]: 27.5 MFI
fluorescence intensity [18, 29]: 28.5 MFI
fluorescence intensity [18, 30]: 28.2 MFI
fluorescence intensity [18, 31]: 29.2 MFI
fluorescence intensity [18, 24]: 28 MFI
fluorescence intensity [18, 25]: 32 MFI
fluorescence intensity [18, 26]: 46 MFI
fluorescence intensity [18, 27]: 83.8 MFI
fluorescence intensity [19, 28]: 18 MFI
fluorescence intensity [19, 29]: 17 MFI
fluorescence intensity [19, 30]: 17.8 MFI
fluorescence intensity [19, 31]: 19 MFI
fluorescence intensity [19, 24]: 19 MFI
fluorescence intensity [19, 25]: 26 MFI
fluorescence intensity [19, 26]: 134 MFI
fluorescence intensity [19, 27]: 954 MFI
fluorescence intensity [20, 28]: 18.5 MFI
fluorescence intensity [20, 29]: 17.5 MFI
fluorescence intensity [20, 30]: 18.5 MFI
fluorescence intensity [20, 31]: 17.5 MFI
fluorescence intensity [20, 24]: 18.5 MFI
fluorescence intensity [20, 25]: 18.5 MFI
fluorescence intensity [20, 26]: 19 MFI
fluorescence intensity [20, 27]: 29.5 MFI
fluorescence intensity [21, 28]: 20 MFI
fluorescence intensity [21, 29]: 19 MFI
fluorescence intensity [21, 30]: 19.8 MFI
fluorescence intensity [21, 31]: 18 MFI
fluorescence intensity [21, 24]: 20.5 MFI
fluorescence intensity [21, 25]: 19.5 MFI
fluorescence intensity [21, 26]: 30.5 MFI
fluorescence intensity [21, 27]: 96.5 MFI
fluorescence intensity [22, 28]: 16 MFI
fluorescence intensity [22, 29]: 16 MFI
fluorescence intensity [22, 30]: 17 MFI
fluorescence intensity [22, 31]: 15 MFI
fluorescence intensity [22, 24]: 16 MFI
fluorescence intensity [22, 25]: 18 MFI
fluorescence intensity [22, 26]: 19.8 MFI
fluorescence intensity [22, 27]: 38.2 MFI
fluorescence intensity [23, 28]: 13 MFI
fluorescence intensity [23, 29]: 14 MFI
fluorescence intensity [23, 30]: 14.5 MFI
fluorescence intensity [23, 31]: 13.5 MFI
fluorescence intensity [23, 24]: 14 MFI
fluorescence intensity [23, 25]: 16.8 MFI
fluorescence intensity [23, 26]: 66.5 MFI
fluorescence intensity [23, 27]: 540 MFI
